{"source": "paper PMC7181201", "about": "“Dual P-Glycoprotein and CA XII Inhibitors: A New Strategy to Reverse the P-gp Mediated Multidrug Resistance (MDR) in Cancer Cells” (Molecules, 2020)", "origin": "cited, not measured here", "system": "K562 cells", "parameters": "method as in PMID 30947123", "conditions": "K562 parental cells ref 38; read-out: doxorubicin IC50; cited from earlier work"}
{"compound": "COc1cccc2c1C(=O)c1c(O)c3c(c(O)c1C2=O)C[C@@](O)(C(=O)CO)C[C@@H]3O[C@H]1C[C@H](N)[C@H](O)[C@H](C)O1", "note": "[doxo, doxorubicin]", "values": [{"measurement": "IC50", "value": "34 ± 8", "unit": "nM"}]}
